Some entries share one result that the patent states for a list of compounds.
Tested on: aquatic organisms
Experiment: Overall comparison of toxicity to aquatic organisms
Assay type: in vivo
Conditions: versus hydrazinium hydrochloride

Structure (SMILES)	orders of magnitude less toxic to aquatic organisms than the hydrazinium hydrochloride
CCC(C)=NO [2-Butanone oxime]	1 to 4 orders of magnitude
NNC(=O)NN [Carbohydrazide]	1 to 4 orders of magnitude
